In publication PMC12163073:
Results are given in words; binding and its absence hold for the method and conditions named. In cells and extracts the contact can be indirect. Some entries that bind do so weakly or less than the wild type.

Chains of the proteins cited; added tags and fusions are not shown.
UniProt Q86WV6: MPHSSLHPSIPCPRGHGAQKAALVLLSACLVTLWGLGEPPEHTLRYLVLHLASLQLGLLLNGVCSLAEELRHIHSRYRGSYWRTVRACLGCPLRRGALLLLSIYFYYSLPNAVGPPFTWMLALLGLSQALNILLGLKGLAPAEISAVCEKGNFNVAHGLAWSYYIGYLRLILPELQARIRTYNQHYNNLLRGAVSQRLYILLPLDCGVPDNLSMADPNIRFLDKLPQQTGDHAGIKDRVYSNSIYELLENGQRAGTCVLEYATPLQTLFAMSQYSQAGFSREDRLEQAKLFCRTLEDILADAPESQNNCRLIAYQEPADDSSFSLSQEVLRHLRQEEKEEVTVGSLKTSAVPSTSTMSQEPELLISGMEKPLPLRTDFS
UniProt P09874: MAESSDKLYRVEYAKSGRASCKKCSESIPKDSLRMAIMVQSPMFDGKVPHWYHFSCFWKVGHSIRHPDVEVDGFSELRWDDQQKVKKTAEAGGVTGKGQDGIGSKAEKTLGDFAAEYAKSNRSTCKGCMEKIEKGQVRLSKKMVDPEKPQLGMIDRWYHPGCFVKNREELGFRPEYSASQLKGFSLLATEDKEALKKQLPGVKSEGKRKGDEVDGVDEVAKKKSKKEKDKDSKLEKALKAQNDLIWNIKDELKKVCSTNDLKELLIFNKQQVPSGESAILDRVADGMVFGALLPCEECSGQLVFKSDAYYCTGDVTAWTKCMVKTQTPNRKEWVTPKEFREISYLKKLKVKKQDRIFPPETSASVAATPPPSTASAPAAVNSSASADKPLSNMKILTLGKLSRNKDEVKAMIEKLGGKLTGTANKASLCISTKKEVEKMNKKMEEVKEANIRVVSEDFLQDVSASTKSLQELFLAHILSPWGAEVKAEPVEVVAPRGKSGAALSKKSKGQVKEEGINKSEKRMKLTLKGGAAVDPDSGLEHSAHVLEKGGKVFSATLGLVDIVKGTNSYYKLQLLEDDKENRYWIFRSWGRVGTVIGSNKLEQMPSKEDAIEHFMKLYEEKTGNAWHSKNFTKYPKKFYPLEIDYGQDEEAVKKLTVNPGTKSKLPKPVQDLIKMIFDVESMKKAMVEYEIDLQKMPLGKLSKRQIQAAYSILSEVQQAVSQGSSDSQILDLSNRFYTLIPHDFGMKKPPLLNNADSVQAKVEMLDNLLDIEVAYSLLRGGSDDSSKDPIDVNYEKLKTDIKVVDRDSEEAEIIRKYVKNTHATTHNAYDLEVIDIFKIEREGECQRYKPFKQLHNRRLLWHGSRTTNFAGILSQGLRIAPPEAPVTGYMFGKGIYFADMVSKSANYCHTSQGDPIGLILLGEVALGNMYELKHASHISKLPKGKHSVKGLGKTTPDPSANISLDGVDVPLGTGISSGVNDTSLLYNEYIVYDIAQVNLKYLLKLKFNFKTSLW
UniProt P11103: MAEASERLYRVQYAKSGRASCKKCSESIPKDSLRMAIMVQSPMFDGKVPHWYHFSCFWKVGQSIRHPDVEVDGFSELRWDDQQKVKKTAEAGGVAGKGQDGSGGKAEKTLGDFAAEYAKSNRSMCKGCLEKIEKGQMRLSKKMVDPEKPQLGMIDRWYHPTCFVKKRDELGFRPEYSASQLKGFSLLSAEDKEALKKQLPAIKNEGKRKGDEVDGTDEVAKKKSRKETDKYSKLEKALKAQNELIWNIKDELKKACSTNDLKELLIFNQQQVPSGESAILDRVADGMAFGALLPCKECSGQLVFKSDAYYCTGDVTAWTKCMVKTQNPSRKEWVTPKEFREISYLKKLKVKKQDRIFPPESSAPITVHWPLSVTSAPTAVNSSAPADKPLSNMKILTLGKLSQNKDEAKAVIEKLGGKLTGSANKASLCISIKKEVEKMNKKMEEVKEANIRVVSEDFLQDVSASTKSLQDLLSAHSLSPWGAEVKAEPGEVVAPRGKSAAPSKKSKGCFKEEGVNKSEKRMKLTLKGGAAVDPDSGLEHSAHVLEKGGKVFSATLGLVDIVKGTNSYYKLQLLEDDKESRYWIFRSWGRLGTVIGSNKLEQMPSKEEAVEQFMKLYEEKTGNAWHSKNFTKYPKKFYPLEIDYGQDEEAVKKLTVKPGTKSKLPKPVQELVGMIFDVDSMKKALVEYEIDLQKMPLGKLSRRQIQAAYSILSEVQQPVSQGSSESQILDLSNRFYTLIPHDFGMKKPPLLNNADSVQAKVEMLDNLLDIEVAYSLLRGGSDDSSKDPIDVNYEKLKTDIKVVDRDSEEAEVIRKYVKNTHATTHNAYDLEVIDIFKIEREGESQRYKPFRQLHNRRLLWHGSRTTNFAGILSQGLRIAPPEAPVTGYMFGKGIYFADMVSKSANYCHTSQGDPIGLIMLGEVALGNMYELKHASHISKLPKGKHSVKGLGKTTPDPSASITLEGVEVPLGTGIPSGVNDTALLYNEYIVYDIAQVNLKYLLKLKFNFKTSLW

Assays:
[1] = target: stimulator of interferon genes (STING), human, endogenous (human (endogenous in THP-1 and MDA-MB-231)) (UniProt Q86WV6); experiment: proximity ligation; Duolink in situ PLA in MDA-MB-231 cells without irradiation (CON); mouse anti-STING1 and rabbit anti-PARP antibodies
[2] = target: stimulator of interferon genes (STING), human, endogenous (human (endogenous in THP-1 and MDA-MB-231)) (UniProt Q86WV6); experiment: co-IP; lysates (NP40 buffer) of BMDMs or THP-1 cells with and without IR; BMDM lysates immunoprecipitated with anti-STING beads, immunoblotting
[3] = target: stimulator of interferon genes (STING), human, endogenous (human (endogenous in THP-1 and MDA-MB-231)) (UniProt Q86WV6); experiment: proximity ligation; Duolink in situ PLA in MDA-MB-231 cells treated with 20 Gy irradiation; mouse anti-STING1 and rabbit anti-PARP antibodies
[4] = target: MYC-tagged STING (UniProt Q86WV6); experiment: co-IP; lysates of STING^-/- THP-1 cells reconstituted with MYC-tagged STING, after IR; immunoblotting
[5] = target: T1, stimulator of interferon genes (STING), mouse, endogenous in BMDMs (mouse (endogenous in BMDMs)) (UniProt Q3TBT3); experiment: co-IP; lysates (NP40 buffer) of BMDMs or THP-1 cells with and without IR; BMDM lysates immunoprecipitated with anti-STING beads, immunoblotting
T1 sequence: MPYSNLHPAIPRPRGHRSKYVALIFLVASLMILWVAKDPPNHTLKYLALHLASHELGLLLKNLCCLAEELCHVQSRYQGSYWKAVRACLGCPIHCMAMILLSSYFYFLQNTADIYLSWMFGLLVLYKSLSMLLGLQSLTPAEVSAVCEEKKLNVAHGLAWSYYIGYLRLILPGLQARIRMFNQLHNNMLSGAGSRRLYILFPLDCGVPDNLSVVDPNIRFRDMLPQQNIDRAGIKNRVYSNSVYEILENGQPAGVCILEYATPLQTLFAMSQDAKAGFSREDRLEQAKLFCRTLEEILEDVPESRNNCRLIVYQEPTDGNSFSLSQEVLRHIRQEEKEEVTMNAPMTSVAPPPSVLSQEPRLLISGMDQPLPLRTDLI

binding [2]	binding [3]	binding [4]	binding [5]	Substance	binding [1]
binds	binds	binds	–	poly (ADP-ribose) polymerase-1 (PARP1), human, endogenous (from UniProt P09874 1-1014)	no binding (condition: cells without radiation)
–	–	–	binds	poly (ADP-ribose) polymerase-1 (PARP1), mouse, endogenous in BMDMs (from UniProt P11103 1-1013)	–
